These are yes or no findings as the source states them, for the method shown. Binding seen in cells or lysates may run through a third protein. Here binding means that the protein was enriched with, or labelled near, the bait; the list need not be complete.
Target: T1, endogenous Rab27a (mouse (endogenous in B16-F1)) (UniProt Q9ERI2)
T1 sequence: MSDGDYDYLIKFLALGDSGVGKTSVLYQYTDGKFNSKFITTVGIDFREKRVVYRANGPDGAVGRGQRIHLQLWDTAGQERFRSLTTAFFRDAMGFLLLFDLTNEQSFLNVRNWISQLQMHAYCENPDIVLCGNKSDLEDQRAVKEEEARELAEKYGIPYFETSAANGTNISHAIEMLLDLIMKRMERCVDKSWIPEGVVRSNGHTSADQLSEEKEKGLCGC
Assay: affinity purification with mass spectrometry; endogenous Rab27a immunoprecipitated with goat anti-Rab27a antibodies on protein A/G resin from lysates of B16-F1 cells expressing GFP-hsSPIRE1; 20 mM Tris-HCl pH 7.5, 50 mM NaCl, 1 mM EGTA, 1% CHAPS, 1 mM GTP; overnight at 4 °C; co-precipitating proteins identified by mass spectrometry

Amino acid sequences for entries named in this document (tags omitted). A change or cut given only in a name is not applied to a line headed by its entry. Chains listed by the source or under a name are the forms on record and can include a tag or linker.
GFP-SPIRE1 (human) (Q08AE8-2, form named): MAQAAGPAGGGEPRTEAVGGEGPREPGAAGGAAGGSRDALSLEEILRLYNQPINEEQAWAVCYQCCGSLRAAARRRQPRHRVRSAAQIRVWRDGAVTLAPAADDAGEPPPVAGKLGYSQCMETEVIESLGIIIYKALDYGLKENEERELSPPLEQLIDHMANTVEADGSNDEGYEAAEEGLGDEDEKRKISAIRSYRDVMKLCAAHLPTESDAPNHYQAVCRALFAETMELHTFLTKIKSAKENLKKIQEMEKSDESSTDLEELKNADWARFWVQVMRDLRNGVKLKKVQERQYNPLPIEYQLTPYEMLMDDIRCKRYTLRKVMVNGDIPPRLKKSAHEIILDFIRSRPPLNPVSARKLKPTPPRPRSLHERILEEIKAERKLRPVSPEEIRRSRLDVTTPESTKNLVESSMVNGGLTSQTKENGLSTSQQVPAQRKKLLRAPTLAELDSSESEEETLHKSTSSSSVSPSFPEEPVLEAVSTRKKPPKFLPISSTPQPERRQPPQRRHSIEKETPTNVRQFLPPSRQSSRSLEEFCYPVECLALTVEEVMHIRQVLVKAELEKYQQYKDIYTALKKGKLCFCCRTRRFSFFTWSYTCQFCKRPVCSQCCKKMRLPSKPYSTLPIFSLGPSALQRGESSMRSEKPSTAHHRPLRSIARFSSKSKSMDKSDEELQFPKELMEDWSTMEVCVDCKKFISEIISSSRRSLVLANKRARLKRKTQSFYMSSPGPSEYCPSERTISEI

binding: binds
Substance: GFP-SPIRE1 (human) (from UniProt Q08AE8-2 1-742)

— paper PMC7359353, “Rab27a co-ordinates actin-dependent transport by controlling organelle-associated motors and track assembly proteins” (Nature Communications, 2020)
